This is one part of the list.
These molecules were tested on T1, CTL2-GFP (C. trachomatis L2/434/Bu, GFP-expressing). Conditions: bulk GFP, single well; 28.5 h, 10 µM; inhibitor.
T1 construct: L2/434/Bu, GFP-expressing
Parameters: species or system HeLa; Intracellular C. trachomatis growth in HeLa cells, bulk GFP fluorescence relative to DMSO

Row | Structure (SMILES) | % of control remaining
1 | CCn1ncc2c1CCCC2NC1CCN(c2ccccc2)C1=O (stereo not drawn) [CBK305144] | 116.869%
2 | CCN1CCC2(CCC1=O)CN(Cc1noc(CC(C)C)n1)CCN2C (stereo not drawn) [CBK306971] | 70.5489%
3 | COc1cc(C(C)=O)ccc1OCCCN1CCC(O)(C(=O)c2ccc(F)cc2)CC1 [CBK025271C] | 100%
4 | CCNC(=O)N1CC2(CCN(CCc3cccc4ccccc34)CC2)c2ccccc21 [CBK136965] | 97.0924%
5 | Cc1cc(NC(=O)C2CCN(CC3CCCO3)CC2)no1 (stereo not drawn) [CBK305544] | 123.422%
6 | O=C1CC[C@@H](NCc2ccsc2)[C@H](c2cc(F)cc(F)c2)N1 [CBK282910] | 104.371%
7 | COCCN(C)C(=O)c1cn2cc(-c3cc(C)oc3C)n(C)c(=O)c2n1 [CBK306605] | 145.864%
8 | O=C(Cc1c[nH]c2ccccc12)N1Cc2ccccc2C1 [CBK200321] | 98.8356%
9 | Cc1ccc(S(=O)(=O)NC(C)(C)CSc2nnc(N)s2)cc1 [CBK266350] | 133.079%
10 | Cn1c(CN2CCN(c3ccc(C#N)cc3)CC2)nnc1[C@H]1C[C@@H](N)C1 [CBK306985] | 94.8681%
11 | O=C(C1CC1)N1CC(n2nc(-c3cccs3)ccc2=O)C1 [CBK284650] | 101.76%
12 | CSCCN1CCC(C(=O)c2ccc(F)cc2)CC1 [CBK149145] | 130.463%
13 | CN1C(=O)/C(=C2\SC(=S)N(C(CCC(=O)O)C(=O)O)C2=O)c2ccccc21 (stereo not drawn) [CBK261010] | 114.106%
14 | O=C(c1cnc2cc(Cl)ccc2c1O)N1CCN(c2ncccn2)CC1 [CBK107358] | 159.06%
15 | O=C1CC2(CCN(C(=O)C3CCOC3)CC2)Oc2c(Br)cc(Br)cc21 (stereo not drawn) [CBK156512] | 116.781%
16 | CCOc1ccc(Nc2nc(-c3ccc(C)cc3C)c(CC(=O)O)s2)cc1 [CBK264187] | 91.633%
17 | Cc1cc(C)c(OCC(=O)Nc2cccc(-c3nc4cc(C(C)C)ccc4o3)c2)c([N+](=O)[O-])c1 [CBK264680] | 104.565%
18 | COC(=O)[C@H]1CN(C(=O)Cc2ccccn2)C[C@@H]1c1ccc(F)cc1 [CBK283519] | 140.908%
19 | CC(C)[C@@H](CO)Nc1nc(-c2cccnc2)cn2ccnc12 [CBK037539] | 106.502%
20 | CN(C)CCC1CCCCN1C(=O)[C@@H]1C[C@@H]2C=C[C@H]1C2 (stereo partly drawn) [CBK282054] | 123.739%

Reprinted, entries 2–3
Row | Structure (SMILES) | % of control remaining
2 | CCN1CCC2(CCC1=O)CN(Cc1noc(CC(C)C)n1)CCN2C (stereo not drawn) [CBK306971] | 70.5489%
3 | COc1cc(C(C)=O)ccc1OCCCN1CCC(O)(C(=O)c2ccc(F)cc2)CC1 [CBK025271C] | 100%

The list continues:

Row | Structure (SMILES) | % of control remaining
21 | O=C(Nc1c(F)cc(F)cc1OC1CCNCC1)c1ccccn1 [CBK050274T] | 101.35%
22 | COc1ccc(NC(=O)CSc2cnn[nH]2)c(OC)c1 [CBK269969] | 137.076%
23 | CC(C)(C)OC(=O)N[C@@H](Cc1ccccc1)CN(Cc1ccccc1)Cc1ccc(S(=O)(=O)N2CCOC2=O)cc1 [CBK028952] | 91.8682%
24 | OC1(C(F)(F)F)C=C(c2cccs2)ON1 (stereo not drawn) [CBK006243] | 139.068%
25 | O=C(Nc1ccc(S(=O)(=O)Nc2cncs2)cc1)c1ccc(-c2cccc(C(F)(F)F)c2)o1 [CBK266625] | 43.4731%
26 | CC(=O)N1Cc2cc(C)ccc2OC2(CCN(CC3CC3)CC2)C1 [CBK285021] | 119.039%
27 | O=C(CSC1=NCCS1)Nc1ccc(Cl)cn1 [CBK057917] | 155.869%
28 | CC(C)C(C(=O)Nc1ccc(S(=O)(=O)N2CCOCC2)cc1)N1C(=O)c2ccccc2C1=O (stereo not drawn) [CBK265607] | 113.078%
29 | CN1CCN(C(=O)c2ccc(-c3cnc4[nH]c(=O)n(Cc5ccncc5)c4n3)cc2)CC1 [CBK064679] | 229.224%
30 | CCOCCCC(=O)N1CCN(Cc2nnc3n2CCCCC3)CC1 [CBK305298] | 118.899%
31 | CCN1CCN(C(=O)COc2cccnc2)CC1 [CBK200378] | 142.695%
32 | CC(C)c1ccc(NC(=O)CSc2n[nH]c(=O)n2-c2ccccc2)cc1 [CBK299826] | 159.708%
33 | Clc1ccccc1-c1nccnc1NCc1ccncc1 [CBK037472] | 164.188%
34 | COC1CCC(C(=O)Nc2cnc(-c3ccc(F)c(Cl)c3)c(-c3ccc(C(C)=O)s3)n2)CC1 (stereo not drawn) [CBK036718] | 169.217%
35 | CCn1c2cc(C)sc2c2cnn(CC(=O)N(C)C)c(=O)c21 [CBK284173] | 112.218%
36 | O=C(Cn1nc2n(c1=O)CCCCC2)NCc1ccccc1Cl [CBK304642] | 136.698%
37 | COC(=O)c1cc(-c2c[nH]c3ccccc23)n[nH]1 [CBK241010] | 110.981%
38 | COc1ccc(CC(=O)N2CCC(c3cc4cnccc4[nH]3)CC2)cc1 [CBK283451] | 125.43%
39 | O=c1ccc2c(-c3cccc(C(F)(F)F)c3)ccnc2[nH]1 [CBK073733] | 117.859%
